Measurements reported in PubChem BioAssay AID1508588 (Peter MacCallum Cancer Centre, 2020).
Screen: 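Genome-wide search for knock-downs that heighten vemurafenib action in melanoma cells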 (primary screen). Cell system: human WM266.4 melanoma cells (BRAF V600 mutant). Reagents: siRNA pool against human genes, 40 nM. Time to read-out: 96 h from transfection to read-out. Treatment: vemurafenib 300 nM (about IC25), added 48 h after transfection, for 48 h; comparison arm got DMSO vehicle only. Measurement: 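Cell gain (DAPI nuclei at end minus before drug, mean of two replicates) and medium lactate by absorbance per cell, both as ratio to non-targeting siRNA, also grouped into fold-change classes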. Reading the numbers: cell gain with vemurafenib: higher = more cell gain than with non-targeting siRNA; lactate per cell with vemurafenib: higher = more lactate made per cell. Rule for the call: 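Enhancement is called by pairing each knock-down's vehicle-arm and drug-arm fold-change classes for viability or glycolysis; which class combinations qualify is not given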. Meaning of the calls: active = enhances vemurafenib effect; inactive = no enhancement seen.
In all, the deposit lists about 18,000 reagents; below is a part drawn at random. Of all reagents, 790 (4.4%) were called active. 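Calls rest on a combination of fold-change classes in drug and vehicle arms, not all shown here.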

no.	target	cell gain with vemurafenib	lactate per cell with vemurafenib	activity call
1	TAFA4	0.67	0.62	inactive
2	GUCY2F	0.75	0.82	inactive
3	C1orf87	0.79	0.35	inactive
4	ARHGAP12	0.65	1.7	inactive
5	ZC4H2	0.19	1.77	inactive
6	PLPP3	0.74	1.03	inactive
7	BMAL2	0.6	1.28	inactive
8	ECH1	0.48	0.96	inactive
9	CD37	0.53	1.07	inactive
10	GATD3	0.98	0.5	inactive
11	C6orf47	0.58	1.57	inactive
12	VEGFB	0.06	0.91	inactive
13	IL21R	0.59	1.87	inactive
14	GPR17	0.71	0.74	inactive
15	DNAJB5	0.86	0.6	inactive
16	PCDHGB4	0	0	inactive
17	ANAPC13	0.73	0.84	inactive
18	CBLC	1.02	0.86	inactive
19	CATSPERB	0.29	0.79	inactive

Laid out differently: results already given.
| target | cell gain with vemurafenib | lactate per cell with vemurafenib | activity call |
| --- | --- | --- | --- |
| C1orf87 | 0.79 | 0.35 | inactive |
| ARHGAP12 | 0.65 | 1.7 | inactive |
| ZC4H2 | 0.19 | 1.77 | inactive |

The results go on.
no.	target	cell gain with vemurafenib	lactate per cell with vemurafenib	activity call
20	ATAD1	0.53	0.82	inactive
21	NPFFR1	0.73	1.05	inactive
22	CD274	-0.09	1.26	inactive
23	ISCA1	1.08	1.76	inactive
24	HRCT1	0.74	1.08	inactive
25	ASB6	0.36	1.02	inactive
26	ALPK2	0.45	0.91	inactive
27	RLN3	0.82	0.8	inactive
28	VPS26C	0.52	0.74	inactive
29	XAGE3	0	1.62	inactive
30	LHFPL6	0.44	1.46	inactive
31	ZNF286A	0.52	0.53	inactive
32	FAM151A	0.15	3.05	inactive
33	DAAM1	1.02	0.65	inactive
34	SLX4	0.1	0.42	inactive
